{"source": "patent US20060233883A1", "about": "“Intravenous nanoparticles for targeting drug delivery and sustained drug release” (priority 2003, published 2006)", "experiment": "Encapsulation of steroids into PLGA nanoparticles (steroid content by HPLC)", "assay_type": "physicochemical", "method": "Each mixture was centrifuged at 12,000 rpm for 5 min and the supernatant was discarded to obtain precipitates in the form of zinc-steroids or iron-steroids. […] To each of the resultant solutions, an aqueous solution of zinc acetate was added and the mixture was allowed to stand for 2 hours at room temperature. […] The mixture was then centrifuged at 20,000 G for 20 min. Following the removal of the supernatant, the residue was resuspended in water and the suspension was again centrifuged to wash the nanoparticles. […] Similarly, the amount of water-insoluble steroid was determined for the nanoparticles prepared by different method without metal ions.", "note": "For at least one compound, name, drawing or mass did not settle the structure."}
{"smiles": "C[C@H]1C[C@H]2[C@@H]3CCC4=CC(=O)C=C[C@]4(C)[C@@]3(F)[C@@H](O)C[C@]2(C)[C@@]1(O)C(=O)CO", "note": "[betamethasone]", "values": [{"measurement": "Steroid/nanoparticle (wt %)", "value": 0.01, "unit": "wt %"}]}
